Results published in PubChem BioAssay AID602296 (Broad Institute, 2012).
Screen size: about 2,000 compounds; about 190 (9.5%) were called active. Roughly 14% stayed inconclusive and do not appear here.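 The calls were made as follows: active = fitted activation curve crossing 40% at a concentration no higher than the sample's top valid tested dose; inconclusive = flat fitted curve at 30% to 70% activation, or poor curve fit; inactive = signal decrease, flat curve within 30%, or the rest.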 The list lacks most of the strong results.

Experiment: sustained heat shock response element induction – cell-based, mouse, luciferase, cherry-pick, dose, confirmation (AID 602296);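 also: test compounds applied by themselves with no MG132 co-treatment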
Settings: NIH3T3-HGL HSF-1 response element luciferase, 48 h; at 26 µM (top of the series) unless noted

activation, inactive:
O=C(COC(=O)/C=C/c1ccc(Br)o1)NCCCN1CCCC1=O -9.42%
Cc1ccc(-c2ccc(=O)[nH]n2)cc1 6.96%
CCCc1nc2ccc(NC(=O)c3cccs3)cc2c(=O)n1Cc1ccccc1Cl -43.2%
CCOC(=O)C1CCCN(C(=O)c2ccc(Cl)c(S(=O)(=O)N3CCCCC3)c2)C1 (stereo unspecified) -9.23%
O=[N+]([O-])c1ccc(N2CCCCCC2)c([N+](=O)[O-])c1 -2.24%
O=C(CN(CC1CCCO1)S(=O)(=O)c1ccc(S(=O)(=O)NC2CC2)cc1)Nc1ccccc1 (stereo unspecified) -13.9%
O=c1c2sccc2nc(SCc2ccc([N+](=O)[O-])cc2)n1Cc1ccccn1 -7.99%
COc1ccc(-n2nc3c(N4CCC(C(=O)N5CCC(C)CC5)CC4)nnc(C)c3c2C)cc1 -33.5%
C#CCOCCOCCOCCNc1nc(N2CCN(C(=O)[C@H](Cc3cc4ccccc4[nH]3)n3cc(C(N)CC(C)C)nn3)CC2)nc(N2CCN(C(=O)[C@H](CCC(=O)O)n3cc(C(N)[C@H](C)CC)nn3)CC2)n1 (stereo partly specified) -2.42%
Cc1cc(=O)[nH]c(-n2ncc(C#N)c2N)n1 -2.13%
Cc1ccc(C(=O)/C=C/c2cc(Br)cc(Br)c2O)o1 2.94%
CCOC(=O)CC1C(=O)NCCN1S(=O)(=O)c1cc(Cl)c(Cl)cc1Cl (stereo unspecified) 9.36%
O=S(=O)(Nc1cc2nc3ccccc3nc2n1Cc1ccccc1)c1ccc(Cl)cc1 -76.8%
COC(=O)c1cccc(C(=O)N2CCCC(C(=O)c3ccccc3OC)C2)c1 (stereo unspecified) -0.71%
CCCCNc1c2c3c(cccc3n(C)c1=O)C(=O)c1ccccc1-2 -25.9%
Cc1ccc(N2C(=O)C3CC(c4ccccc4)=C4C5C=CC(C6C(=O)N(c7ccc(C)cc7C)C(=O)C56)C4C3C2=O)c(C)c1 (stereo unspecified) -8.02%
Cc1ccc(S(=O)(=O)c2c(N)n(-c3ccccc3)c3nc4ccccc4nc23)cc1 8.69%
CCOC(=O)C(C)(C)N(Cc1ccc(C)cc1)S(=O)(=O)c1ccc(Cl)c([N+](=O)[O-])c1 -87.3%
NC(=O)COc1ccccc1 -6.51%
Cn1cnc([N+](=O)[O-])c1S(=O)(=O)c1ccc(Cl)cc1 -3.41% [at 6 µM]
O=[N+]([O-])c1cccc(-c2ncc3ccccn23)c1 -2.6%
COc1ccc(/C=C/C(=O)C23CC4CC(CC(C4)C2)C3)cc1CN1CCOCC1 16.2%
O=C(NC1CCCN(Cc2ccccc2F)C1)c1cccs1 (stereo unspecified) -6.74%
O=C(CSC1=NCCN1)Nc1cccc(C(F)(F)F)c1 -21.6%
CCOC(=O)C1=C(C)N=c2s/c(=C\C(=O)OC)c(=O)n2C1c1ccc(OC)cc1 (stereo unspecified) 2.15%
Cc1ccc(C(C)(O)CS(=O)(=O)Cc2ccccc2Cl)cc1 (stereo unspecified) 3.42%
CC1CC(C)CN(C(=O)CCS(=O)(=O)c2ccc3c(c2)NC(=O)CS3)C1 (stereo unspecified) -22.2%
Cn1c(=O)c2c(nc(N/N=C/c3ccc(OC(=O)c4ccco4)cc3)n2Cc2ccc(F)cc2)n(C)c1=O -42%
COc1cc(-c2nc(-c3ccc4c(c3)-c3ccccc3S4(=O)=O)c(-c3ccccc3)[nH]2)cc(OC)c1O -40.3%
O=C(COc1ccc(Cl)cc1)Nc1ncc([N+](=O)[O-])s1 -82.4%
CCN(CC)CCCn1c(=S)[nH]c2ncccc2c1=O -3.45%
CCN(c1ccccc1)S(=O)(=O)c1cc(NC(=O)Nc2ccccc2C#N)ccc1Cl -22.2%
COc1ccc(NC(=O)CCc2nnc3ccc(NCc4ccc5c(c4)OCO5)nn23)cc1 -9.09%
CS(=O)(=O)c1ccc(Cl)c(C(=O)NCC2CCCCC2)c1 2.34%
Cc1ccccc1NC(=O)C(=Cc1ccc(C(=O)O)cc1)C(=O)Nc1ccccc1C -62.7%
CCC(CO)NCC#Cc1ccccc1 (stereo unspecified) -4.67%
Cc1ccc(C(=O)O/N=C(\N)Cc2cccc3ccccc23)cc1 -24.1%
O=C(Nc1c(S(=O)(=O)c2ccc(Cl)cc2)csc1Br)c1ccccc1Cl 12.2%
CCCNC(=O)c1c(CSc2ccc(Cl)cc2)noc1C(=O)NCc1ccccc1 -59.7%
O=C(NCCc1nc2ccccc2[nH]1)c1ccc(Cl)c([N+](=O)[O-])c1 -7.69%
Cc1cccc(C)c1NCc1nnc(SCC(=O)Nc2nc(-c3ccccc3)cs2)n1-c1ccccc1 11.9%
CCOC(=O)NC(=O)/C(C#N)=N/Nc1c(F)cccc1F -8.71%
COc1ccc(C(O)(C(=O)NNc2ccc(C)cc2)c2cccs2)cc1 (stereo unspecified) -27.3%
O=C(NNc1c(F)c(F)cc(F)c1F)c1ccc(Cl)nc1 7.76%
CCn1c(SCC(=O)N/N=C/C=C/c2ccco2)nc2ccccc21 9.59%
CCOc1cc(/C=C2/C(=O)ON=C2C)ccc1OCc1ccc(F)cc1 44.8%
CCOC(=O)C1=C(CN2CCc3ccccc32)NC(=O)NC1c1ccc(Cl)cc1 (stereo unspecified) -89.3%
Cc1sc2nc(CSc3cccc(C(F)(F)F)c3)[nH]c(=O)c2c1C -6.05%
O=C(NN1C(=O)C2C(C1=O)C1C=CC2C12CC2)c1ccc(Cl)cc1 (stereo unspecified) -3.81%
COc1ccc(CN2CCNC(=O)C2CC(=O)NCC2CCOCC2)cc1C (stereo unspecified) -12.1%
COc1cccc(/C=N/Nc2ccc([N+](=O)[O-])cn2)c1O -99.1%
Cc1cc2nc(CCN(C(=S)NCC3CCCO3)C3CCCC3)[nH]c2cc1C (stereo unspecified) 0.103%
O=C(O)c1cccc(S(=O)(=O)N2CCC(n3nnc4cc(C(F)(F)F)ccc43)CC2)c1 8.8%
CN1CC=C2C(C#N)=C(N)C(C#N)(C#N)C(c3cccc(Cl)c3Cl)C2C1 (stereo unspecified) 7.89%
CCOc1ccc(N2CC(O)=C(c3nc4ccccc4c(=O)[nH]3)C2=N)cc1 3.58%
Cc1cc(SCC(=O)N/N=C/c2ccc(O)c(O)c2)c(C)cc1Br -70.1%
O=C(Cc1ccccc1)Nc1cc(Cl)ccc1Sc1ccccc1 1.42%
O=C(CN1C(=O)NC(Cc2c[nH]c3ccccc23)C1=O)Nc1cccc(S(=O)(=O)N2CCOCC2)c1 (stereo unspecified) -5.34%
CNC(=S)N(Cc1ccc(Cl)cc1)Cc1cccs1 -9.02%
Cc1ccc(S(=O)(=O)NC2c3cccc4cccc(c34)C2Sc2nncn2C)cc1 (stereo unspecified) -12.1%
O=c1[nH]c(Nc2ccccc2Cl)cc2ccccc12 -1.6%
CCC(C)(C)n1nnnc1C(c1cc2cc(C)cc(C)c2[nH]c1=O)N1CCN(Cc2ccc3c(c2)OCO3)CC1 (stereo unspecified) 2.83%
CCN(C(=O)COC(=O)c1c2c(nc3ccccc13)/C(=C/c1ccccc1)CC(C)C2)C1CCS(=O)(=O)C1 (stereo unspecified) -90.4%
CC(C)Cn1c(N)c(C(=O)COC(=O)c2ccc([N+](=O)[O-])o2)c(=O)n(C)c1=O -24.4%
CCOc1ccc(C(=O)N2CCN(S(=O)(=O)c3cccs3)CC2)c(OCC)c1 -10.2%
O=[N+]([O-])c1cccnc1S(=O)(=O)c1ccccc1 -107%
O=c1c2ccccc2nc(SCc2cn3ccsc3n2)n1-c1ccccc1 -37.9%
CN(C)/C=C/C(=O)c1cccc(Oc2ncccn2)c1 5.17%
CCc1ccc(N(C(=O)c2snc(C(N)=O)c2N)C(C(=O)NCCC(C)C)c2c[nH]c3ccccc23)cc1 (stereo unspecified) -8.71%
O=C(CN1C(=O)NC2(CCCc3ccccc32)C1=O)Nc1cccc(S(=O)(=O)N2CCCCC2)c1 (stereo unspecified) -43.3%
COC(=O)c1sc(N)c(C(=O)OC)c1CSc1nc2sc3c(c2c(=O)n1C)CCC3 -5.02%
O=S(=O)(/N=C(/Nc1cccc2ccccc12)c1ccccc1)c1ccc(F)cc1 -0.076%
N#C/C(=C\c1ccc(Sc2nc3ccccc3[nH]2)o1)c1ccccc1 -79.4%
Cc1sc2nc(C3CC3)nc(SCC(=O)N3CCc4ccccc4C3)c2c1C -14.7%
Cc1cccc(/C=N\NC(=O)c2csnn2)c1 20.4%
Cc1nc(SCC(=O)c2ccccc2)c(C#N)c(-c2ccco2)c1C(=O)NCc1ccco1 132%
O=c1oc2ccccc2c(NC2CCCCC2)c1NS(=O)(=O)c1ccc(Cl)cc1 -45%
COc1ccc(C2CC(c3cccs3)=NN2c2nc(C)c(C(C)=O)s2)cc1OC (stereo unspecified) -16.6%
COc1cc(/C=N/N2CCN(C3c4ccccc4-c4ccccc43)CC2)cc(OC)c1OC -3.27%
O=C(NCCN1Cc2ccccc2C1=O)c1cccs1 -1.13%
COc1ccc(S(=O)(=O)Nc2ccccc2C(F)(F)F)cc1 -25.4%
COc1ccc(S(=O)(=O)Cc2ccc(C(=O)NCCCN(C)c3ccccc3)o2)cc1 -9.77%
CC(CCC(=O)O)C1CC[C@H]2C3CCC4CC(=O)CCC4(C)[C@H]3CC(=O)C12C (stereo partly specified) 18%
O=C(CC1C(=O)N(Cc2ccccc2)C(=S)N1CCN1CCOCC1)Nc1ccc(F)cc1 (stereo unspecified) 2.9%
Cc1cc(C)n(S(=O)(=O)/C=C/c2ccccc2)n1 -5.8%
Cc1cccc(NC(=O)CC(C)S(=O)(=O)c2ccc3c(c2)NC(=O)CO3)c1C (stereo unspecified) -13.3%

Reprinted at random: 2 records from the list, in no set order.
activation, inactive:
COc1cc(-c2nc(-c3ccc4c(c3)-c3ccccc3S4(=O)=O)c(-c3ccccc3)[nH]2)cc(OC)c1O -40.3%
Cc1nc(SCC(=O)c2ccccc2)c(C#N)c(-c2ccco2)c1C(=O)NCc1ccco1 132%

Molecules above that contain bromine:
activation, inactive:
O=C(COC(=O)/C=C/c1ccc(Br)o1)NCCCN1CCCC1=O -9.42%
Cc1ccc(C(=O)/C=C/c2cc(Br)cc(Br)c2O)o1 2.94%
O=C(Nc1c(S(=O)(=O)c2ccc(Cl)cc2)csc1Br)c1ccccc1Cl 12.2%
Cc1cc(SCC(=O)N/N=C/c2ccc(O)c(O)c2)c(C)cc1Br -70.1%

Taken from the results shown (2 entries):
activation, inactive:
Cc1ccc(S(=O)(=O)c2c(N)n(-c3ccccc3)c3nc4ccccc4nc23)cc1 8.69%
CCOC(=O)C(C)(C)N(Cc1ccc(C)cc1)S(=O)(=O)c1ccc(Cl)c([N+](=O)[O-])c1 -87.3%
